# Some results were stated once for a whole list of compounds, not compound by compound.
# Tested on: Hsp90
# Experiment: Degradation of Hsp90 client protein Her2 (anti-Her2-FITC FACS) via inhibition of Hsp90 activity
# Assay type: cell-based, Human
# Conditions: Her2 staining by FACS; BT474, SK-BR-3, MCF-7 breast carcinoma cells; read-out: IC50 Range for Inhibition of Hsp90
smiles,measurement,value
"Oc1ccc(-c2nnc(S)n2-c2cccc3c2CCCC3)c(O)c1 [Compound 42, 3-(2,4-Dihydroxy-phenyl)-4-(1,2,3,4-tetrahydro-naphthalen-5-yl)-5-mercapto-[1,2,4] triazole]",IC50,≥ 3 µM
